“Also recorded” adds a separate entry of the source.
Test: CD-spectroscopy of peptide secondary structure
Assay type: physicochemical
Settings: 10 μM peptide; for conformational change (helical content) on binding to liposomes: DOPE/DOPG liposomes; for conformational change together with E. coli LPS: E. coli lipopolysaccharide 0.02 wt %

GGLIKTKRKRKKQRVKIAYEEIFVKNM [GGL27, C-terminal peptide of TFPI, plasmin-generated]
conformational change (helical content) on binding to liposomes: largely unaffected; also recorded: no significant conformational changes | conformational change together with E. coli LPS: only relatively minor ones

LIKTKRKRKKQRVKIAY [LIK17]
conformational change (helical content) on binding to liposomes: largely unaffected; also recorded: no significant conformational changes | conformational change together with E. coli LPS: only relatively minor ones
